Measured values as given in publication PMC3212559, “Large-Scale Protein-Protein Interaction Analysis in Arabidopsis Mesophyll Protoplasts by Split Firefly Luciferase Complementation” (PLoS ONE, 2011).
These are yes or no findings as the source states them, for the method shown. In cells and extracts the contact can be indirect. Where a sequence is shown, tags or fusion partners need not be part of it.

Assays:
Test in all cases: split reporter; SFLC in living Arabidopsis mesophyll protoplasts: Aux/IAA-FLucN or MYB30-FLucN co-expressed with ARFCTD-FLucC or Aux/IAA-FLucC for 6 hr; 10 µg of each construct, 2×10^4 cells, 96-well plate, D-luciferin; relative activity standardised against ARF5CTD-FLucC + IAA28-FLucN
IAA9-FLucC = target: T1, IAA9-FLucC (Arabidopsis, UniProt Q38827 1-338)
T1 construct: Arabidopsis Aux/IAA protein IAA9; also called Aux/IAA-FLucC; source: Arabidopsis mesophyll protoplasts, transfected, in living cells; not shown: FLucC (firefly luciferase aa 394-550)
T1 sequence (looked up): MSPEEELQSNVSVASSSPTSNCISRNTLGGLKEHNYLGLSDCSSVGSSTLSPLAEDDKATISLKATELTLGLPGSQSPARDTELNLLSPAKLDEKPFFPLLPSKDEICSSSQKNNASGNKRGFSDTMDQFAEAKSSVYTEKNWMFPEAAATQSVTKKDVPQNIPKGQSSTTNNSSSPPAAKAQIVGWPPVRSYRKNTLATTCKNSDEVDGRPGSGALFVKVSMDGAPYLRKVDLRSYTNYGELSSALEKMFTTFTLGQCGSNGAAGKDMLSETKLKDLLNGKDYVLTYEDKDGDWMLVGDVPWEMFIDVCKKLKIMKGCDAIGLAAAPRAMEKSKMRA

IAA3-FLucC = target: T2, IAA3-FLucC (Arabidopsis, UniProt Q38822 1-189)
T2 construct: Arabidopsis Aux/IAA protein IAA3; also called Aux/IAA-FLucC; source: Arabidopsis mesophyll protoplasts, transfected, in living cells; not shown: FLucC (firefly luciferase aa 394-550)
T2 sequence (looked up): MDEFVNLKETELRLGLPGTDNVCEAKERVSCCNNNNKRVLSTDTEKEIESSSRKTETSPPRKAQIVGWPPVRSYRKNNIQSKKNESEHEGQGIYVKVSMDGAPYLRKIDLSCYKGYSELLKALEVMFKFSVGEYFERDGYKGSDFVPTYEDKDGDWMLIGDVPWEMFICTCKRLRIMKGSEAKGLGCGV

IAA19-FLucC = target: T3, IAA19-FLucC (Arabidopsis, UniProt O24409 1-197)
T3 construct: Arabidopsis Aux/IAA protein IAA19; also called Aux/IAA-FLucC; source: Arabidopsis mesophyll protoplasts, transfected, in living cells; not shown: FLucC (firefly luciferase aa 394-550)
T3 sequence (looked up): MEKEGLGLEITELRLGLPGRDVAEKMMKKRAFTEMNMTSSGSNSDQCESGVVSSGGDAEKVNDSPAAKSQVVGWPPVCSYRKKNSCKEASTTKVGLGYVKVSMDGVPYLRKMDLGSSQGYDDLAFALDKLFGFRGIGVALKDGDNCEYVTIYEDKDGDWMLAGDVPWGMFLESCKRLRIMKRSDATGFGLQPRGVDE

IAA12-FLucC = target: T4, IAA12-FLucC (Arabidopsis, UniProt Q38830 1-239)
T4 construct: Arabidopsis Aux/IAA protein IAA12; also called Aux/IAA-FLucC; source: Arabidopsis mesophyll protoplasts, transfected, in living cells; not shown: FLucC (firefly luciferase aa 394-550)
T4 sequence (looked up): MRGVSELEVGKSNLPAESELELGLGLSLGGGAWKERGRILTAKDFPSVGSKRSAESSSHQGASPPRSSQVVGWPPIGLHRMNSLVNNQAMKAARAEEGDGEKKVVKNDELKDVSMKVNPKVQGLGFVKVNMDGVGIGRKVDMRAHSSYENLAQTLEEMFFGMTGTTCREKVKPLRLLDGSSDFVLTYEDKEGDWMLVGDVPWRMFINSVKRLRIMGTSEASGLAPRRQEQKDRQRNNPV

IAA1-FLucC = target: T5, IAA1-FLucC (Arabidopsis, UniProt P49677 1-168)
T5 construct: Arabidopsis Aux/IAA protein IAA1; also called Aux/IAA-FLucC; source: Arabidopsis mesophyll protoplasts, transfected, in living cells; not shown: FLucC (firefly luciferase aa 394-550)
T5 sequence (looked up): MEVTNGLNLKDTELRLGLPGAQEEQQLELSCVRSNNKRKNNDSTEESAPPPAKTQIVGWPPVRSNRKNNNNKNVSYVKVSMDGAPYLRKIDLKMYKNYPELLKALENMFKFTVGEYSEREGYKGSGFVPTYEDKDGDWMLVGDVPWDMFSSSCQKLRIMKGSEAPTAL

IAA28-FLucC = target: T6, IAA28-FLucC (Arabidopsis, UniProt Q9XFM0 1-175)
T6 construct: Arabidopsis Aux/IAA protein IAA28; also called Aux/IAA-FLucC; source: Arabidopsis mesophyll protoplasts, transfected, in living cells; not shown: FLucC (firefly luciferase aa 394-550)
T6 sequence (looked up): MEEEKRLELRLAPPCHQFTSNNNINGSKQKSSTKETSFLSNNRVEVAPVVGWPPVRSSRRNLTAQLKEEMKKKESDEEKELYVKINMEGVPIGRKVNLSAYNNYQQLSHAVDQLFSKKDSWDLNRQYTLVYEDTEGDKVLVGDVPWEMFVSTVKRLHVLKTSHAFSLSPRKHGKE

B1: MYB30-FLucN (natural protein, UniProt Q9SCU7 1-323, looked up)
chain: MVRPPCCDKGGVKKGPWTPEEDIILVTYIQEHGPGNWRAVPTNTGLLRCSKSCRLRWTNYLRPGIKRGNFTEHEEKMIVHLQALLGNRWAAIASYLPQRTDNDIKNYWNTHLKKKLNKVNQDSHQELDRSSLSSSPSSSSANSNSNISRGQWERRLQTDIHLAKKALSEALSPAVAPIITSTVTTTSSSAESRRSTSSASGFLRTQETSTTYASSTENIAKLLKGWVKNSPKTQNSADQIASTEVKEVIKSDDGKECAGAFQSFSEFDHSYQQAGVSPDHETKPDITGCCSNQSQWSLFEKWLFEDSGGQIGDILLDENTNFF
notes: transcription factor MYB30, the unrelated protein used as negative control; source: Arabidopsis mesophyll protoplasts, transfected, in living cells; not shown: FLucN (firefly luciferase aa 1-398)
IAA9-FLucC
  binding: no binding (tested: relative luciferase activity below 0.1)
IAA3-FLucC
  binding: no binding (tested: relative luciferase activity below 0.1)
IAA19-FLucC
  binding: no binding (tested: relative luciferase activity below 0.1)
IAA12-FLucC
  binding: no binding (tested: relative luciferase activity below 0.1)
IAA1-FLucC
  binding: no binding (tested: relative luciferase activity below 0.1)
IAA28-FLucC
  binding: no binding (tested: relative luciferase activity below 0.1)
